# Source: the supplement of paper PMC12823440, “Inhibitors supercharge kinase turnover through native proteolytic circuits” (Nature, 2025)
# By UniProt entry, the sequences of proteins in these tests, tags left out. Where a name states a change or a piece, a line headed by the entry shows the natural chain unless it says otherwise.
# UniProt P07949, whole entry, looked up: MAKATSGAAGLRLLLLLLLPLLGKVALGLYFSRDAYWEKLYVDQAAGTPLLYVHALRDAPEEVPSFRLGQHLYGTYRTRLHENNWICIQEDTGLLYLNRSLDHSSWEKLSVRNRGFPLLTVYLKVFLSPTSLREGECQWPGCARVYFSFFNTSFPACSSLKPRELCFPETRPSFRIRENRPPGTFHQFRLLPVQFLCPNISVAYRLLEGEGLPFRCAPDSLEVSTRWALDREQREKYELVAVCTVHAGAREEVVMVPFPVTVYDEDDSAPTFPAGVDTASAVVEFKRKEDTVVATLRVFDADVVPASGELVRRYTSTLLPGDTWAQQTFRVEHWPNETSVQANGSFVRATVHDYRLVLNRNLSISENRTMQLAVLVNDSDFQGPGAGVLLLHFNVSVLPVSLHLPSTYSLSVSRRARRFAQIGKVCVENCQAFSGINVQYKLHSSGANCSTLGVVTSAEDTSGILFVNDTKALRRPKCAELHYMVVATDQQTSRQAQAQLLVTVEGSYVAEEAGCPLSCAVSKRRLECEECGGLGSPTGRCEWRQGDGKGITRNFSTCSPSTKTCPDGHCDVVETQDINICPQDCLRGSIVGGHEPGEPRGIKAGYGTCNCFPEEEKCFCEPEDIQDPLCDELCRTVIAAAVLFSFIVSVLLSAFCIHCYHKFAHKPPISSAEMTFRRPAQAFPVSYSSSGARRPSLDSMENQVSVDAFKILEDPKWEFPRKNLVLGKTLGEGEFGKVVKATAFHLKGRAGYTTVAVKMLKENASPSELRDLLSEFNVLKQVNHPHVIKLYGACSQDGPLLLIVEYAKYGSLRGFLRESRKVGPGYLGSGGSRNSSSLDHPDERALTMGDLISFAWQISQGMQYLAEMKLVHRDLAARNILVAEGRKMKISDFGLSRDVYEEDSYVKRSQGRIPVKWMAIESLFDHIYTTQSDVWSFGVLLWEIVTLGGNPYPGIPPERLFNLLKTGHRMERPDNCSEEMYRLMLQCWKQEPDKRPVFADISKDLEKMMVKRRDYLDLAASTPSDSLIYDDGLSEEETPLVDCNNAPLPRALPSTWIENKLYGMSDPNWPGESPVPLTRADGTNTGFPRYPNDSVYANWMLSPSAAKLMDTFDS
# UniProt P07949, whole entry M918T, looked up: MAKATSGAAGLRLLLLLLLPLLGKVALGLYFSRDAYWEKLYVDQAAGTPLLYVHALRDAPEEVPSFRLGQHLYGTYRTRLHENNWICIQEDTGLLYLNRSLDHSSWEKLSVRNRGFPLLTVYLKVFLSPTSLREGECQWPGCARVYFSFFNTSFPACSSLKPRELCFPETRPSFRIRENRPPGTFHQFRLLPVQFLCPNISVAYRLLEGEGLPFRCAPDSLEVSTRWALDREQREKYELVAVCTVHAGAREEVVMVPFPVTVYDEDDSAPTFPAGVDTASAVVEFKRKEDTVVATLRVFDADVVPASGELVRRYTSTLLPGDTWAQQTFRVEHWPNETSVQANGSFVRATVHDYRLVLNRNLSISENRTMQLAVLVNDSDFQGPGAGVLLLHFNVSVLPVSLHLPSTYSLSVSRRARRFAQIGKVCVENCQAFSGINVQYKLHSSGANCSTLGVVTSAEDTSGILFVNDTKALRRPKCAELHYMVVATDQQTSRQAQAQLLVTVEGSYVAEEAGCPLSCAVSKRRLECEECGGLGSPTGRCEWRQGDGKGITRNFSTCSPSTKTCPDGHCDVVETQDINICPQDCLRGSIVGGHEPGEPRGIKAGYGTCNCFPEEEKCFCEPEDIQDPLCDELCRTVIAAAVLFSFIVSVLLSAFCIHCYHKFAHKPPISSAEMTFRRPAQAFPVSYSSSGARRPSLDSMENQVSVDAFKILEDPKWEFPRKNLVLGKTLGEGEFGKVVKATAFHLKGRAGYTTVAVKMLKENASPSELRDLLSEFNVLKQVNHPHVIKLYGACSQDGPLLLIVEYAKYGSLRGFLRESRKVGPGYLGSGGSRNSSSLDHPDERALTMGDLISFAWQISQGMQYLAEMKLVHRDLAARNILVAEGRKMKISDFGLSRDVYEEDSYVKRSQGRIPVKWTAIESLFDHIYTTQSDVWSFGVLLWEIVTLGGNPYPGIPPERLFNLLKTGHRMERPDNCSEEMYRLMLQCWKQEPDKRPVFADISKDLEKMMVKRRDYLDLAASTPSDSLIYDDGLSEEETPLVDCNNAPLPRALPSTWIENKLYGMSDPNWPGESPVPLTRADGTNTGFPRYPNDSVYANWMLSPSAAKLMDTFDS
# UniProt Q9BRS2: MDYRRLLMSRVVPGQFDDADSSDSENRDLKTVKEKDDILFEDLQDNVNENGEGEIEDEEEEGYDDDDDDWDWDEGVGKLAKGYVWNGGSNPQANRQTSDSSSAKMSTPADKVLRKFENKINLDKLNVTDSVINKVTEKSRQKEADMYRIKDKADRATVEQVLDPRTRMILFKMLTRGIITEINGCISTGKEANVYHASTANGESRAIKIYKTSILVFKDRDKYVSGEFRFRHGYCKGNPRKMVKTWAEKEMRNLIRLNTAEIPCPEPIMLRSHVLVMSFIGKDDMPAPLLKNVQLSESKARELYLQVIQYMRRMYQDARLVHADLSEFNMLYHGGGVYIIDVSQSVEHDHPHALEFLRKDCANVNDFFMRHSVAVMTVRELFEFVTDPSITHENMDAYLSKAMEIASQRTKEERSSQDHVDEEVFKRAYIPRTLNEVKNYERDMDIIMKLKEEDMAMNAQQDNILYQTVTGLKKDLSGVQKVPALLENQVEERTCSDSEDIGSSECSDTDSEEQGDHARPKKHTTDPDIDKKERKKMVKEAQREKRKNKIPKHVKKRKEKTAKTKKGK
# UniProt Q13546: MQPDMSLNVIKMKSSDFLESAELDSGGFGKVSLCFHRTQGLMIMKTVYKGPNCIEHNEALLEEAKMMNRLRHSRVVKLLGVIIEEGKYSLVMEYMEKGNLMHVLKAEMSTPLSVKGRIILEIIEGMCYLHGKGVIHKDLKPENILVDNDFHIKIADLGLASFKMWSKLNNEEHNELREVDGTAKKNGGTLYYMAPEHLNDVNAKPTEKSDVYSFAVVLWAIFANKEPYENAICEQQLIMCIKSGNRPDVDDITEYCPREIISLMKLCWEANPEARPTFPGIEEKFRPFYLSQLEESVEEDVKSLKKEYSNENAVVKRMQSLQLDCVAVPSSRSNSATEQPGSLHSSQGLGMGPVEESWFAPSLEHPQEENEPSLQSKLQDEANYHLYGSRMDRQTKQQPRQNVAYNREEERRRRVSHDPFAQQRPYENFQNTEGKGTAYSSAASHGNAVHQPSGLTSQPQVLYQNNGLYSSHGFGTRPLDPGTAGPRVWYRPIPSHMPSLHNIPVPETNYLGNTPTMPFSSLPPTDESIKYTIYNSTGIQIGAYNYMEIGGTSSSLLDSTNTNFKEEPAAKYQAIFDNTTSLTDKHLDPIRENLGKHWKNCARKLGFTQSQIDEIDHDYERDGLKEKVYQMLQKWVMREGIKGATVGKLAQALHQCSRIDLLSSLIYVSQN
# UniProt Q15418, whole entry: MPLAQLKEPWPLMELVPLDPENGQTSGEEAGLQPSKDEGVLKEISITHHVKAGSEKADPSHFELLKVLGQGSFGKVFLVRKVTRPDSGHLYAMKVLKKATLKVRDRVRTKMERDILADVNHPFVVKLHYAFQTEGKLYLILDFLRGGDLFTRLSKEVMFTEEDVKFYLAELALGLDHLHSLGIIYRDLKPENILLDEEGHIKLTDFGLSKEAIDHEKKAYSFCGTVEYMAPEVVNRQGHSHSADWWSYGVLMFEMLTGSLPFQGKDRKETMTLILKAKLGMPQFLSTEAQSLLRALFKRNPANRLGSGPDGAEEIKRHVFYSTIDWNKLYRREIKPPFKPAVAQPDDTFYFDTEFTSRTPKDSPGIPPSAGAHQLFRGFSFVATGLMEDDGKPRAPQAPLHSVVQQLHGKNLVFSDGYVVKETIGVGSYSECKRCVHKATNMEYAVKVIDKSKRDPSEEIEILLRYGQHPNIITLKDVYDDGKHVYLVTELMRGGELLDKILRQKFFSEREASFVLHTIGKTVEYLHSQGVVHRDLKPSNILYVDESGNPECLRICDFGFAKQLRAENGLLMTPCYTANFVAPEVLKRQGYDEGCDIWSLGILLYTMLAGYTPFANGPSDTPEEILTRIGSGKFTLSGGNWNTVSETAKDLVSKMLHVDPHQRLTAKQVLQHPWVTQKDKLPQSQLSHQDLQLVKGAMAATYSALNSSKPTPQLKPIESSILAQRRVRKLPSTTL
# UniProt Q9NYA1, whole entry: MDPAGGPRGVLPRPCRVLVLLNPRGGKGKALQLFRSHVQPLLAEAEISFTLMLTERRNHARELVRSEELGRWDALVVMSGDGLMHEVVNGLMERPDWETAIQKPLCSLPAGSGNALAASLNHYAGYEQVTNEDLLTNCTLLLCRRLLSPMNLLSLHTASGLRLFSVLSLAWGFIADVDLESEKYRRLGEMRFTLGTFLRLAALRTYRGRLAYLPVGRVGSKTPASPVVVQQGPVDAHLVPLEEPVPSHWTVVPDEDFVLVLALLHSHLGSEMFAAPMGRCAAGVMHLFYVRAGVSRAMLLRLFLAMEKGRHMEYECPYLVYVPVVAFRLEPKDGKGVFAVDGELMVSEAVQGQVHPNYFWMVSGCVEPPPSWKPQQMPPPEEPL
# UniProt Q9Y6E0: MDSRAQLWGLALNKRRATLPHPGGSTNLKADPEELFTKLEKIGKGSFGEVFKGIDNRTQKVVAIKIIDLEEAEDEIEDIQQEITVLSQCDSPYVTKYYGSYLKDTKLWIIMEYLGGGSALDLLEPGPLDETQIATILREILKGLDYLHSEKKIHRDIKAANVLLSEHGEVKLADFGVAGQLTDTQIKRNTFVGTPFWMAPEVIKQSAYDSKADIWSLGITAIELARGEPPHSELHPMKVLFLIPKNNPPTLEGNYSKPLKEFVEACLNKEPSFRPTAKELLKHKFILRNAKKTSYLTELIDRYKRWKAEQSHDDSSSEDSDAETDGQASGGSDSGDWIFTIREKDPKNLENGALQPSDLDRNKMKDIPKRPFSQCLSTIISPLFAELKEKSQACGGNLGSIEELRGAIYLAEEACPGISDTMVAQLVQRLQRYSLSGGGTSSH
# UniProt P29597: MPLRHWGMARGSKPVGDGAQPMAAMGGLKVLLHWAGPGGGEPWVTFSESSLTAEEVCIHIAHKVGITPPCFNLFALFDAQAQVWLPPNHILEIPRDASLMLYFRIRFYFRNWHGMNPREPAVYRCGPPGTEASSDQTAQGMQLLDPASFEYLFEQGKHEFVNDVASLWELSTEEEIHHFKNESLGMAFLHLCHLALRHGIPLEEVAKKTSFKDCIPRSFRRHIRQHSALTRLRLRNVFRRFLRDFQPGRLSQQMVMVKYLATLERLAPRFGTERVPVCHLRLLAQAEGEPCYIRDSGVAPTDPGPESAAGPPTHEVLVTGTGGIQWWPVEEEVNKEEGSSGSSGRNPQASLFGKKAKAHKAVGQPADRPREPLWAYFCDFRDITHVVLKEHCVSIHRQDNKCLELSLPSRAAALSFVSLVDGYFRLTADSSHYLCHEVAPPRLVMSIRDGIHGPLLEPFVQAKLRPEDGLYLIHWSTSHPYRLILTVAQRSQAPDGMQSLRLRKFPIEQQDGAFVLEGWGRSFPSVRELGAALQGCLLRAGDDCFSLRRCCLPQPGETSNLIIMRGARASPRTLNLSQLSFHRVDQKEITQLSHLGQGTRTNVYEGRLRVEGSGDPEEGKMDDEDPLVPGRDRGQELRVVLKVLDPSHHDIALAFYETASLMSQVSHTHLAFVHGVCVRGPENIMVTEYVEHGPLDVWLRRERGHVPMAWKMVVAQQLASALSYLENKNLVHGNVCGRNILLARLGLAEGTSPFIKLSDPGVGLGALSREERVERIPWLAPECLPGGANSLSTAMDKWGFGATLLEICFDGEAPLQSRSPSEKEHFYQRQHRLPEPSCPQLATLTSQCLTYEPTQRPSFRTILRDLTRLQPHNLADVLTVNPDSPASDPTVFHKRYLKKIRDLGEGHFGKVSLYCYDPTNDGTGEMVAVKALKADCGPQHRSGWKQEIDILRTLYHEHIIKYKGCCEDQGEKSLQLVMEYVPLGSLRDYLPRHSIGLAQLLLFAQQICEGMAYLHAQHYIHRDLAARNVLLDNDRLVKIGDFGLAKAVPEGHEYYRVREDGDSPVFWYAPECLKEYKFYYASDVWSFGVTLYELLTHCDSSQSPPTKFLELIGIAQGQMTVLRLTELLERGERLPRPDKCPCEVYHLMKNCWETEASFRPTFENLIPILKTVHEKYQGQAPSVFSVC
# UniProt P11802: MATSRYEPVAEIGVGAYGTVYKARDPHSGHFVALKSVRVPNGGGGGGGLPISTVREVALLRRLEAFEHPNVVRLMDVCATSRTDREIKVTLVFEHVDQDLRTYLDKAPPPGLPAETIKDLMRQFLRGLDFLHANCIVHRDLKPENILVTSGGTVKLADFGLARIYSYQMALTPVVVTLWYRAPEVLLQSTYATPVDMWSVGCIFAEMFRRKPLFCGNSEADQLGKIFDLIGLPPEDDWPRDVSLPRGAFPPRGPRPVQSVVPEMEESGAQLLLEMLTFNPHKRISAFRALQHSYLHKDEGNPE
# Structures can show the parent of a compound that is named as a salt. Some of the results follow. The calls rarely recur for the same compound in another form.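 Kinases, fused to nanoluciferase, were expressed in K562 cells; luminescence was measured every 4 h from 2 to 18 h as percent of control (DMSO = 100%, positive control = 0%). A time point is decreased if signal falls significantly (2 sigma). Hits were called by the authors by a rule that is not shown; the count of time points alone does not decide it.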
# Key:
# Conditions in all cases: K562, 2-18 h
# RET = RET (UniProt P07949); assay: kinase-Nluc reporter destabilization hit call (1 = scored as downregulated) (binary); higher = compound decreases kinase abundance
# [1] = target: RET_M918T (clone: RET_mut) (UniProt P07949); assay: as above
# RIOK1 = RIOK1 (UniProt Q9BRS2); assay: as above
# RIPK1 = RIPK1 (UniProt Q13546); assay: as above
# RIPK2 = RIPK2 (UniProt O43353); assay: as above
# ROR2 = ROR2 (UniProt Q01974); assay: as above
# RPS6KA1 = RPS6KA1 (UniProt Q15418); assay: as above
# SPHK1 = SPHK1 (UniProt Q9NYA1); assay: as above
# SRC = SRC (UniProt P12931); assay: as above
# STK24 = STK24 (UniProt Q9Y6E0); assay: as above
# STK38 = STK38 (UniProt Q15208); assay: as above
# SYK = SYK (UniProt P43405); assay: as above
# TEC = TEC (UniProt P42680); assay: as above
# TYK2 = TYK2 (UniProt P29597); assay: as above
# ULK3 = ULK3 (UniProt Q6PHR2); assay: as above
# YES1 = YES1 (UniProt P07947); assay: as above
# ZAK = ZAK (UniProt Q9NYL2); assay: as above
# ZAP70 = ZAP70 (UniProt P43403); assay: as above
# CDK4 = CDK4 (UniProt P11802); assay: number of time points (of 4; 2 h point missing) at which kinase-Nluc abundance scored as decreased, DMSO-normalised (count); higher = more persistent destabilization
# CDK7 = CDK7 (UniProt P50613); assay: as above
smiles,measurement,setting,value
C=CC(=O)Nc1cc(Nc2nccc(-c3cn(C)c4ccccc34)n2)c(OC)cc1N(C)CCN(C)C [Osimertinib],kinase-Nluc reporter destabilization hit call,RET; 2.5 µM,inactive: 0
same,kinase-Nluc reporter destabilization hit call,[1]; 2.5 µM,inactive: 0
same,kinase-Nluc reporter destabilization hit call,RIOK1; 2.5 µM,inactive: 0
same,kinase-Nluc reporter destabilization hit call,RIPK1; 2.5 µM,inactive: 0
same,kinase-Nluc reporter destabilization hit call,RIPK2; 2.5 µM,inactive: 0
same,kinase-Nluc reporter destabilization hit call,ROR2; 2.5 µM,inactive: 0
same,kinase-Nluc reporter destabilization hit call,RPS6KA1; 2.5 µM,inactive: 0
same,kinase-Nluc reporter destabilization hit call,SPHK1; 2.5 µM,inactive: 0
same,kinase-Nluc reporter destabilization hit call,SRC; 2.5 µM,inactive: 0
same,kinase-Nluc reporter destabilization hit call,STK24; 2.5 µM,inactive: 0
same,kinase-Nluc reporter destabilization hit call,STK38; 2.5 µM,inactive: 0
same,kinase-Nluc reporter destabilization hit call,SYK; 2.5 µM,inactive: 0
same,kinase-Nluc reporter destabilization hit call,TEC; 2.5 µM,inactive: 0
same,kinase-Nluc reporter destabilization hit call,TYK2; 2.5 µM,inactive: 0
same,kinase-Nluc reporter destabilization hit call,ULK3; 2.5 µM,inactive: 0
same,kinase-Nluc reporter destabilization hit call,YES1; 2.5 µM,inactive: 0
same,kinase-Nluc reporter destabilization hit call,ZAK; 2.5 µM,inactive: 0
same,kinase-Nluc reporter destabilization hit call,ZAP70; 2.5 µM,inactive: 0
same,number of time points,CDK4; 2.5 µM,0
same,number of time points,CDK7; 2.5 µM,0
Oc1cccc(-c2nc(N3CCOCC3)c3oc4ncccc4c3n2)c1,kinase-Nluc reporter destabilization hit call,RET; 10 µM,inactive: 0
same,kinase-Nluc reporter destabilization hit call,[1]; 10 µM,inactive: 0
same,kinase-Nluc reporter destabilization hit call,RIOK1; 10 µM,inactive: 0
same,kinase-Nluc reporter destabilization hit call,RIPK1; 10 µM,inactive: 0
same,kinase-Nluc reporter destabilization hit call,RIPK2; 10 µM,inactive: 0
same,kinase-Nluc reporter destabilization hit call,ROR2; 10 µM,inactive: 0
same,kinase-Nluc reporter destabilization hit call,RPS6KA1; 10 µM,inactive: 0
same,kinase-Nluc reporter destabilization hit call,SPHK1; 10 µM,inactive: 0
same,kinase-Nluc reporter destabilization hit call,SRC; 10 µM,inactive: 0
same,kinase-Nluc reporter destabilization hit call,STK24; 10 µM,inactive: 0
same,kinase-Nluc reporter destabilization hit call,STK38; 10 µM,inactive: 0
same,kinase-Nluc reporter destabilization hit call,SYK; 10 µM,inactive: 0
same,kinase-Nluc reporter destabilization hit call,TEC; 10 µM,inactive: 0
same,kinase-Nluc reporter destabilization hit call,TYK2; 10 µM,inactive: 0
same,kinase-Nluc reporter destabilization hit call,ULK3; 10 µM,inactive: 0
same,kinase-Nluc reporter destabilization hit call,YES1; 10 µM,inactive: 0
same,kinase-Nluc reporter destabilization hit call,ZAK; 10 µM,inactive: 0
same,kinase-Nluc reporter destabilization hit call,ZAP70; 10 µM,inactive: 0
same,number of time points,CDK4; 10 µM,0
same,number of time points,CDK7; 10 µM,0
N#CC[C@H](C1CCCC1)n1cc(-c2ncnc3[nH]ccc23)cn1 [Ruxolitinib (phosphate)],kinase-Nluc reporter destabilization hit call,RIOK1; 10 µM,inactive: 0
same,kinase-Nluc reporter destabilization hit call,RIPK1; 10 µM,inactive: 0
same,kinase-Nluc reporter destabilization hit call,RIPK2; 10 µM,inactive: 0
same,kinase-Nluc reporter destabilization hit call,ROR2; 10 µM,inactive: 0
same,kinase-Nluc reporter destabilization hit call,RPS6KA1; 10 µM,inactive: 0
same,kinase-Nluc reporter destabilization hit call,SPHK1; 10 µM,inactive: 0
same,kinase-Nluc reporter destabilization hit call,SRC; 10 µM,inactive: 0
same,kinase-Nluc reporter destabilization hit call,STK24; 10 µM,inactive: 0
same,kinase-Nluc reporter destabilization hit call,STK38; 10 µM,inactive: 0
same,kinase-Nluc reporter destabilization hit call,SYK; 10 µM,inactive: 0
same,kinase-Nluc reporter destabilization hit call,TEC; 10 µM,inactive: 0
same,kinase-Nluc reporter destabilization hit call,TYK2; 10 µM,inactive: 0
same,kinase-Nluc reporter destabilization hit call,ULK3; 10 µM,inactive: 0
same,kinase-Nluc reporter destabilization hit call,YES1; 10 µM,inactive: 0
same,kinase-Nluc reporter destabilization hit call,ZAK; 10 µM,inactive: 0
same,kinase-Nluc reporter destabilization hit call,ZAP70; 10 µM,inactive: 0
same,number of time points,CDK4; 10 µM,0
same,number of time points,CDK7; 10 µM,0
CN(C)C(=O)c1cc2cnc(Nc3ccc(N4CCNCC4)cn3)nc2n1C1CCCC1 [Ribociclib hydrochloride],kinase-Nluc reporter destabilization hit call,RET; 2.5 µM,inactive: 0
same,kinase-Nluc reporter destabilization hit call,[1]; 2.5 µM,inactive: 0
same,kinase-Nluc reporter destabilization hit call,RIOK1; 2.5 µM,inactive: 0
same,kinase-Nluc reporter destabilization hit call,RIPK1; 2.5 µM,inactive: 0
same,kinase-Nluc reporter destabilization hit call,RIPK2; 2.5 µM,inactive: 0
same,kinase-Nluc reporter destabilization hit call,ROR2; 2.5 µM,inactive: 0
same,kinase-Nluc reporter destabilization hit call,RPS6KA1; 2.5 µM,inactive: 0
same,kinase-Nluc reporter destabilization hit call,SPHK1; 2.5 µM,inactive: 0
same,kinase-Nluc reporter destabilization hit call,SRC; 2.5 µM,inactive: 0
same,kinase-Nluc reporter destabilization hit call,STK24; 2.5 µM,inactive: 0
same,kinase-Nluc reporter destabilization hit call,STK38; 2.5 µM,inactive: 0
same,kinase-Nluc reporter destabilization hit call,SYK; 2.5 µM,inactive: 0
same,kinase-Nluc reporter destabilization hit call,TEC; 2.5 µM,inactive: 0
same,kinase-Nluc reporter destabilization hit call,TYK2; 2.5 µM,inactive: 0
same,kinase-Nluc reporter destabilization hit call,ULK3; 2.5 µM,inactive: 0
same,kinase-Nluc reporter destabilization hit call,YES1; 2.5 µM,inactive: 0
same,kinase-Nluc reporter destabilization hit call,ZAK; 2.5 µM,inactive: 0
same,kinase-Nluc reporter destabilization hit call,ZAP70; 2.5 µM,inactive: 0
same,number of time points,CDK4; 2.5 µM,0
same,number of time points,CDK7; 2.5 µM,0
FC(F)(F)c1ccc(CNc2ccc(Cc3c[nH]c4ncc(Cl)cc34)cn2)cn1 [Pexidartinib (hydrochloride)],kinase-Nluc reporter destabilization hit call,RET; 10 µM,inactive: 0
same,kinase-Nluc reporter destabilization hit call,[1]; 10 µM,inactive: 0
same,kinase-Nluc reporter destabilization hit call,RIOK1; 10 µM,inactive: 0
same,kinase-Nluc reporter destabilization hit call,RIPK1; 10 µM,inactive: 0
same,kinase-Nluc reporter destabilization hit call,RIPK2; 10 µM,inactive: 0
same,kinase-Nluc reporter destabilization hit call,ROR2; 10 µM,inactive: 0
same,kinase-Nluc reporter destabilization hit call,RPS6KA1; 10 µM,inactive: 0
same,kinase-Nluc reporter destabilization hit call,SPHK1; 10 µM,inactive: 0
same,kinase-Nluc reporter destabilization hit call,SRC; 10 µM,inactive: 0
same,kinase-Nluc reporter destabilization hit call,STK24; 10 µM,inactive: 0
same,kinase-Nluc reporter destabilization hit call,STK38; 10 µM,inactive: 0
same,kinase-Nluc reporter destabilization hit call,SYK; 10 µM,inactive: 0
same,kinase-Nluc reporter destabilization hit call,TEC; 10 µM,inactive: 0
same,kinase-Nluc reporter destabilization hit call,ULK3; 10 µM,inactive: 0
same,kinase-Nluc reporter destabilization hit call,YES1; 10 µM,inactive: 0
same,kinase-Nluc reporter destabilization hit call,ZAK; 10 µM,inactive: 0
same,kinase-Nluc reporter destabilization hit call,ZAP70; 10 µM,inactive: 0
same,number of time points,CDK4; 10 µM,0
same,number of time points,CDK7; 10 µM,0
COc1ccc(S(=O)(=O)Nc2ccccc2CN(C)C/C=C/c2ccc(Cl)cc2)cc1 [KN-92 (phosphate)],kinase-Nluc reporter destabilization hit call,RET; 2.5 µM,inactive: 0
same,kinase-Nluc reporter destabilization hit call,[1]; 2.5 µM,inactive: 0
same,kinase-Nluc reporter destabilization hit call,RIOK1; 2.5 µM,inactive: 0
same,kinase-Nluc reporter destabilization hit call,RIPK1; 2.5 µM,inactive: 0
same,kinase-Nluc reporter destabilization hit call,RIPK2; 2.5 µM,inactive: 0
same,kinase-Nluc reporter destabilization hit call,ROR2; 2.5 µM,inactive: 0
same,kinase-Nluc reporter destabilization hit call,RPS6KA1; 2.5 µM,inactive: 0
same,kinase-Nluc reporter destabilization hit call,SPHK1; 2.5 µM,inactive: 0
same,kinase-Nluc reporter destabilization hit call,SRC; 2.5 µM,inactive: 0
same,kinase-Nluc reporter destabilization hit call,STK24; 2.5 µM,inactive: 0
same,kinase-Nluc reporter destabilization hit call,STK38; 2.5 µM,inactive: 0
same,kinase-Nluc reporter destabilization hit call,SYK; 2.5 µM,inactive: 0
same,kinase-Nluc reporter destabilization hit call,TEC; 2.5 µM,inactive: 0
same,kinase-Nluc reporter destabilization hit call,TYK2; 2.5 µM,inactive: 0
same,kinase-Nluc reporter destabilization hit call,ULK3; 2.5 µM,inactive: 0
same,kinase-Nluc reporter destabilization hit call,YES1; 2.5 µM,inactive: 0
same,kinase-Nluc reporter destabilization hit call,ZAK; 2.5 µM,inactive: 0
same,kinase-Nluc reporter destabilization hit call,ZAP70; 2.5 µM,inactive: 0
same,number of time points,CDK4; 2.5 µM,0
same,number of time points,CDK7; 2.5 µM,0
C#Cc1cccc(Nc2ncnc3cc4c(cc23)OCCOCCOCCO4)c1 [Icotinib],kinase-Nluc reporter destabilization hit call,RET; 10 µM,inactive: 0
same,kinase-Nluc reporter destabilization hit call,[1]; 10 µM,inactive: 0
same,kinase-Nluc reporter destabilization hit call,RIOK1; 10 µM,inactive: 0
same,kinase-Nluc reporter destabilization hit call,RIPK1; 10 µM,inactive: 0
same,kinase-Nluc reporter destabilization hit call,RIPK2; 10 µM,inactive: 0
same,kinase-Nluc reporter destabilization hit call,ROR2; 10 µM,inactive: 0
same,kinase-Nluc reporter destabilization hit call,RPS6KA1; 10 µM,inactive: 0
same,kinase-Nluc reporter destabilization hit call,SPHK1; 10 µM,inactive: 0
same,kinase-Nluc reporter destabilization hit call,SRC; 10 µM,inactive: 0
same,kinase-Nluc reporter destabilization hit call,STK24; 10 µM,inactive: 0
same,kinase-Nluc reporter destabilization hit call,STK38; 10 µM,inactive: 0
same,kinase-Nluc reporter destabilization hit call,SYK; 10 µM,inactive: 0
same,kinase-Nluc reporter destabilization hit call,TEC; 10 µM,inactive: 0
same,kinase-Nluc reporter destabilization hit call,TYK2; 10 µM,inactive: 0
same,kinase-Nluc reporter destabilization hit call,ULK3; 10 µM,inactive: 0
same,kinase-Nluc reporter destabilization hit call,YES1; 10 µM,inactive: 0
same,kinase-Nluc reporter destabilization hit call,ZAK; 10 µM,inactive: 0
same,kinase-Nluc reporter destabilization hit call,ZAP70; 10 µM,inactive: 0
same,number of time points,CDK4; 10 µM,0
same,number of time points,CDK7; 10 µM,0
N#CC[C@H](C1CCCC1)n1cc(-c2ncnc3[nH]ccc23)cn1 [Ruxolitinib],kinase-Nluc reporter destabilization hit call,RIOK1; 10 µM,inactive: 0
same,kinase-Nluc reporter destabilization hit call,RIPK1; 10 µM,inactive: 0
same,kinase-Nluc reporter destabilization hit call,RIPK2; 10 µM,inactive: 0
same,kinase-Nluc reporter destabilization hit call,ROR2; 10 µM,inactive: 0
same,kinase-Nluc reporter destabilization hit call,RPS6KA1; 10 µM,inactive: 0
same,kinase-Nluc reporter destabilization hit call,SPHK1; 10 µM,inactive: 0
same,kinase-Nluc reporter destabilization hit call,SRC; 10 µM,inactive: 0
same,kinase-Nluc reporter destabilization hit call,STK24; 10 µM,inactive: 0
same,kinase-Nluc reporter destabilization hit call,STK38; 10 µM,inactive: 0
same,kinase-Nluc reporter destabilization hit call,SYK; 10 µM,inactive: 0
same,kinase-Nluc reporter destabilization hit call,TEC; 10 µM,inactive: 0
same,kinase-Nluc reporter destabilization hit call,TYK2; 10 µM,inactive: 0
same,kinase-Nluc reporter destabilization hit call,ULK3; 10 µM,inactive: 0
same,kinase-Nluc reporter destabilization hit call,YES1; 10 µM,inactive: 0
same,kinase-Nluc reporter destabilization hit call,ZAK; 10 µM,inactive: 0
same,kinase-Nluc reporter destabilization hit call,ZAP70; 10 µM,inactive: 0
same,number of time points,CDK4; 10 µM,0
same,number of time points,CDK7; 10 µM,0
